Results deposited as PubChem BioAssay AID1259254 (NCATS, 2017)

- Assay: 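Finding genes that stop cells copying their DNA twice in one cycle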 (primary screen)
- Cell system: human HCT116 colorectal cancer cells
- Reagents: single siRNA against human genes
- Time to read-out: 3 days
- Detection: 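Nuclei stained with Hoechst and imaged; cell-cycle phase assigned by DNA content; G2 share scaled per plate, non-targeting siRNA 0%, GMNN siRNA 100%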
- Scale: G2 robust z-score and G2 cells, % of GMNN control: higher = more G2 cells, more excess DNA replication
- Hit rule: 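Active siRNAs have a G2 robust z of 5 or more median absolute deviations over the median, which in these data means about 38% or higher of GMNN control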
Here is one part, drawn at random, of about 59,000 reagents. Of all reagents, about 1,550 (2.6%) got an active call. 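G2 share is only a proxy for re-replication; each gene was hit by three separate siRNAs, and active genes were retested.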 Entries without a mark were called inactive. The numbers tell different reagents against one gene apart. Further read-outs or replicates are left out here. Not given: the amount of reagent.

UBE2D1 #1: G2 robust z-score = -0.892; G2 cells, % of GMNN control = -3.31
UBE2D1 #2: G2 robust z-score = -0.786; G2 cells, % of GMNN control = -2.56
UBE2D1 #3: G2 robust z-score = 0.821; G2 cells, % of GMNN control = 8.74
NDRG3 #1: G2 robust z-score = 1.56; G2 cells, % of GMNN control = 13.9
NDRG3 #2: G2 robust z-score = -0.121; G2 cells, % of GMNN control = 2.11
NDRG3 #3: G2 robust z-score = 1.42; G2 cells, % of GMNN control = 12.9
CNTN6 #1: G2 robust z-score = -0.611; G2 cells, % of GMNN control = -1.33
CNTN6 #2: G2 robust z-score = -0.462; G2 cells, % of GMNN control = -0.28
CNTN6 #3: G2 robust z-score = -0.0695; G2 cells, % of GMNN control = 2.48
SCNM1 #1: G2 robust z-score = -0.986; G2 cells, % of GMNN control = -3.97
SCNM1 #2: G2 robust z-score = 1.24; G2 cells, % of GMNN control = 11.7
SCNM1 #3: G2 robust z-score = -0.58; G2 cells, % of GMNN control = -1.11
RSRC2 #1: G2 robust z-score = 0.0722; G2 cells, % of GMNN control = 3.48
RSRC2 #2: G2 robust z-score = -1.29; G2 cells, % of GMNN control = -6.09
RSRC2 #3: G2 robust z-score = -0.927; G2 cells, % of GMNN control = -3.56
MTA3 #1: G2 robust z-score = -0.122; G2 cells, % of GMNN control = 2.11
MTA3 #2: G2 robust z-score = -0.446; G2 cells, % of GMNN control = -0.167
MTA3 #3: G2 robust z-score = -0.322; G2 cells, % of GMNN control = 0.703
MTA3 #4: G2 robust z-score = -0.907; G2 cells, % of GMNN control = -3.41
MTA3 #5: G2 robust z-score = 2.65; G2 cells, % of GMNN control = 21.6
MTA3 #6: G2 robust z-score = -0.638; G2 cells, % of GMNN control = -1.52
GGCT #1: G2 robust z-score = 1.01; G2 cells, % of GMNN control = 10.1
GGCT #2: G2 robust z-score = -0.174; G2 cells, % of GMNN control = 1.74
GGCT #3: G2 robust z-score = -0.863; G2 cells, % of GMNN control = -3.11
